This passage reports survivor count and T/C results from PubChem BioAssay AID248 (DTP/NCI, 2004).

The list shows only some results of the screen, not a fair sample: it gathers tests that were run many times, whatever their T/C, doses with no T/C, and many T/C values between a quarter and a half above the control. Further doses and runs are listed elsewhere. T/C gives the treated animals as a percentage of the vehicle group. Some entries give survivors of the animals treated and no T/C: the source holds a T/C of zero for them, seemingly a mark for toxic or unscored doses. Some doses without a T/C left all or most animals alive at the check, yet need not have been tolerated: the source hardly ever lists a survival T/C far under the control, and the zero likely stands for such cases as well. Survivors were counted at the toxicity check, usually on the fifth day, unless a day is given; later deaths do not show. Schedules are NCI's codes, taken here to give the interval after Q, in days (D) or hours (H), and the number of doses after X. For survival time, this PubChem deposit counts one and a half times the control or more as active, and values a quarter to a half above the control carry no call in these data; other NCI protocols may use other cut-offs. Some entries hold several experiments; the results are listed from low to high. Some T/C values are followed by the survivors on the day toxicity was checked, most often the fifth; where none is given, no animal had died by that day.

For the experiment, the system named is L1210 leukemia ip in BDF1 mice, survival T/C. The experiment in a line: NCI In Vivo Anticancer Drug Screen. Data for tumor model L1210 Leukemia (intraperitoneal) in B6D2F1 (BDF1) mice. The conditions noted are these: T/C endpoint: mean survival time, higher T/C = longer survival.
[1] abbreviates: dose: 200.0 mg/kg/injection, schedule: Q04DX003 (ip), vehicle: saline.
The mark [2] stands for this setting: dose: 400.0 mg/kg/injection, schedule: Q04DX003 (ip), vehicle: saline.
The mark [3] stands for this setting: dose: 200.0 mg/kg/injection, schedule: Q04DX003 (ip), vehicle: Klucel (hydroxypropylcellulose) (HPC).
[4] abbreviates: dose: 400.0 mg/kg/injection, schedule: Q01DX009 (ip), vehicle: Klucel (hydroxypropylcellulose) (HPC).
Setting [5] is: dose: 400.0 mg/kg/injection, schedule: Q01DX001 (ip), vehicle: saline.
The mark [6] stands for this setting: dose: 400.0 mg/kg/injection, schedule: Q01DX001 (ip), vehicle: carboxymethylcellulose (CMC).
Setting [7] is: dose: 400.0 mg/kg/injection, schedule: Q04DX003 (ip), vehicle: saline with Tween-80.

In the case of `COC(=O)[C@H]1[C@H]2C[C@@H]3c4[nH]c5cc(OC)ccc5c4CCN3C[C@H]2C[C@@H](OC(=O)c2cc(OC)c(OC)c(OC)c2)[C@@H]1OC`, the survivor count is, setting by setting: (dose: 10.5 mg/kg/injection, schedule: Q01DX009 (ip), vehicle: other) 4 of 6; (dose: 12.5 mg/kg/injection, schedule: Q01DX009 (ip), vehicle: saline with Tween-80) 6 of 6; (dose: 21.0 mg/kg/injection, schedule: Q01DX009 (ip), vehicle: other) 5 of 6; (dose: 25.0 mg/kg/injection, schedule: Q01DX001 (ip), vehicle: carboxymethylcellulose (CMC)) 6 of 6; (dose: 25.0 mg/kg/injection, schedule: Q01DX009 (ip), vehicle: saline with Tween-80) 6 of 6; (dose: 29.0 mg/kg/injection, schedule: Q04DX003 (ip), vehicle: carboxymethylcellulose (CMC)) 6 of 6. The survivor count is given as 5 of 6 (dose: 45.0 mg/kg/injection, schedule: Q04DX003 (ip), vehicle: carboxymethylcellulose (CMC)); 6 of 6 (dose: 50.0 mg/kg/injection, schedule: Q01DX001 (ip), vehicle: carboxymethylcellulose (CMC)); 6 of 6 (dose: 50.0 mg/kg/injection, schedule: Q01DX009 (ip), vehicle: saline with Tween-80); 4 of 4 (dose: 50.0 mg/kg/injection, schedule: Q04DX003 (ip), vehicle: saline); 4 of 6 (dose: 65.0 mg/kg/injection, schedule: Q04DX003 (ip), vehicle: carboxymethylcellulose (CMC)); 1 of 4 (dose: 100.0 mg/kg/injection, schedule: Q01DX001 (ip), vehicle: other). For the same molecule, the survivor count is 3 of 4 (dose: 100.0 mg/kg/injection, schedule: Q04DX003 (ip), vehicle: saline); 2 of 4 (dose: 200.0 mg/kg/injection, schedule: Q01DX001 (ip), vehicle: other); 0 of 4 (dose: 400.0 mg/kg/injection, schedule: Q01DX001 (ip), vehicle: other).
For the molecule `CN1CCC=C(CN(c2ccccc2)c2ccccc2)C1`, the survivor count by setting is: under setting [1], 1 of 6; under setting [2], 0 of 6.
`CC(C)(CBr)COC(=O)Nc1cccc2ccccc12`: where the note is “dose: 100.0 mg/kg/injection, schedule: Q01DX009 (ip), vehicle: saline with Tween-80”, the survivor count was 2 of 3.
`C/C=C/C(=O)OC(=O)/C=C/C`: the survivor count reads like this: under setting [1], 1 of 6; under setting [2], 0 of 6.
On to `O=C(COc1ccc(Cl)cc1)Nc1ccc(F)cc1`, for which the survivor count under setting [3] is on record as 6 of 6 and the survivor count under setting [4] was 2 of 6.
As for `Cc1cc(C)c(S(=O)(=O)Cc2cc(Cl)cc(Cl)c2O)c(C)c1`, the survivor count under setting [5] is reported as 6 of 6.
With `O=C1CCCCC1CC1(O)C(=O)NC2CCC(Br)CC21` (stereo not given), the survivor count (dose: 100.0 mg/kg/injection, schedule: Q04DX002 (ip), vehicle: Klucel (hydroxypropylcellulose) (HPC)) is 3 of 3.
As for `N#CC(C#N)c1c(F)c(F)c(C(F)(F)F)c(F)c1F`, the survivor count (dose: 80.0 mg/kg/injection, schedule: Q01DX001 (ip), vehicle: Klucel (hydroxypropylcellulose) (HPC)) was 0 of 6.
`O=C1c2ccccc2C(=O)N1O`: the survivor count under setting [6] was 0 of 4.
Turning to `[NH-]c1ccccc1C(=O)O.[NH-]c1ccccc1C(=O)O.[Zn+2]`, the survivor count is 6 of 6 (dose: 100.0 mg/kg/injection, schedule: Q04DX003 (ip), vehicle: Klucel (hydroxypropylcellulose) (HPC)); 5 of 6 under setting [3]; 0 of 6 (dose: 400.0 mg/kg/injection, schedule: Q04DX003 (ip), vehicle: Klucel (hydroxypropylcellulose) (HPC)).
On to `Cc1c(C)c(NC(=O)N(CCCl)N=O)c(C)c(C)c1NC(=O)N(CCCl)N=O`, for which the T/C by setting is: (dose: 8.0 mg/kg/injection, schedule: Q01DX001 (ip), vehicle: other) 127 % of control; (dose: 16.0 mg/kg/injection, schedule: Q01DX001 (ip), vehicle: other) 127 % of control; (dose: 31.0 mg/kg/injection, schedule: Q01DX001 (ip), vehicle: other) 133 and 139 % of control; (dose: 62.0 mg/kg/injection, schedule: Q01DX001 (ip), vehicle: other) 140 % of control. Besides, the survivor count (dose: 1000.0 mg/kg/injection, schedule: Q01DX001 (ip), vehicle: other) is recorded as 3 of 10.
For `CC(=O)OI(OC(C)=O)c1ccc(-c2ccccc2)cc1`, the survivor count under setting [4] is 6 of 6.
As for `COc1cc(N(CCCl)CCCl)c(OC)cc1C=Nc1cccc(Br)c1`, the survivor count (dose: 60.0 mg/kg/injection, schedule: Q01DX009 (ip), vehicle: carboxymethylcellulose (CMC)) is 5 of 6; the survivor count (dose: 89.0 mg/kg/injection, schedule: Q01DX009 (ip), vehicle: carboxymethylcellulose (CMC)) is 2 of 6; the survivor count (dose: 133.0 mg/kg/injection, schedule: Q01DX009 (ip), vehicle: carboxymethylcellulose (CMC)) is listed as 0 of 6; the survivor count (dose: 200.0 mg/kg/injection, schedule: Q01DX009 (ip), vehicle: carboxymethylcellulose (CMC)) was 0 of 6; the survivor count (dose: 300.0 mg/kg/injection, schedule: Q01DX009 (ip), vehicle: carboxymethylcellulose (CMC)) is given as 0 of 6; the survivor count under setting [6] is recorded as 3 of 6. Moreover, where the note is “dose: 600.0 mg/kg/injection, schedule: Q01DX001 (ip), vehicle: carboxymethylcellulose (CMC)”, the survivor count is 0 of 6. Moreover, the T/C was 138 % of control [5 of 6 alive] (dose: 177.0 mg/kg/injection, schedule: Q01DX001 (ip), vehicle: carboxymethylcellulose (CMC)) and 129 % of control under setting [6].
Regarding `c1ccc(CN2CCCCC2)nc1`, the survivor count (dose: 40.0 mg/kg/injection, schedule: Q01DX009 (ip), vehicle: Klucel (hydroxypropylcellulose) (HPC)) is listed as 2 of 6.
On to `CC(C)(C)CC#N`, for which the survivor count is recorded as 0 of 4 (dose: 200.0 mg/kg/injection, schedule: Q01DX001 (ip), vehicle: saline) and 0 of 4 under setting [5].
For `CC(C)(C)C1=CC(=O)C=CC1=O`, the survivor count is 0 of 6 (dose: 200.0 mg/kg/injection, schedule: Q01DX009 (ip), vehicle: water); 2 of 6 (dose: 300.0 mg/kg/injection, schedule: Q01DX001 (ip), vehicle: water); 0 of 6 (dose: 300.0 mg/kg/injection, schedule: Q01DX009 (ip), vehicle: water); 1 of 6 (dose: 400.0 mg/kg/injection, schedule: Q01DX001 (ip), vehicle: water).
As for `COc1ccc(C(=O)C=C(C(F)(F)F)C(F)(F)F)cc1`, the survivor count by setting is: (dose: 200.0 mg/kg/injection, schedule: Q04DX003 (ip), vehicle: saline with Tween-80) 6 of 6; under setting [7], 3 of 6.
For `C/C(=C\Cl)CN(C)C`, under setting [7], the survivor count is 0 of 6.
With `COc1ccc2nccc(/C=C/CC3CCN(C(C)=O)CC3)c2c1`, the survivor count is 3 of 6 under setting [1] and 1 of 6 under setting [2].
Regarding `Cc1cc(OC(=O)Nc2cccc(Cl)c2)ccc1[N+](=O)[O-]`, the survivor count under setting [4] is 2 of 6.
For `CCCCCCCCCC(=O)NN=C(C)C`, the survivor count is 5 of 6 (dose: 100.0 mg/kg/injection, schedule: Q01DX009 (ip), vehicle: Klucel (hydroxypropylcellulose) (HPC)); 0 of 6 (dose: 200.0 mg/kg/injection, schedule: Q01DX009 (ip), vehicle: Klucel (hydroxypropylcellulose) (HPC)); 0 of 6 under setting [4].
